This note sets out measurements from the supplement of paper PMC12067093, “Discovery and optimisation of a covalent ligand for TRIM25 and its application to targeted protein ubiquitination” (Chemical Science, 2025).

By UniProt entry, the sequences of proteins in these tests, tags left out. Where a name states a change or a piece, a line headed by the entry shows the natural chain unless it says otherwise.
UniProt Q13045: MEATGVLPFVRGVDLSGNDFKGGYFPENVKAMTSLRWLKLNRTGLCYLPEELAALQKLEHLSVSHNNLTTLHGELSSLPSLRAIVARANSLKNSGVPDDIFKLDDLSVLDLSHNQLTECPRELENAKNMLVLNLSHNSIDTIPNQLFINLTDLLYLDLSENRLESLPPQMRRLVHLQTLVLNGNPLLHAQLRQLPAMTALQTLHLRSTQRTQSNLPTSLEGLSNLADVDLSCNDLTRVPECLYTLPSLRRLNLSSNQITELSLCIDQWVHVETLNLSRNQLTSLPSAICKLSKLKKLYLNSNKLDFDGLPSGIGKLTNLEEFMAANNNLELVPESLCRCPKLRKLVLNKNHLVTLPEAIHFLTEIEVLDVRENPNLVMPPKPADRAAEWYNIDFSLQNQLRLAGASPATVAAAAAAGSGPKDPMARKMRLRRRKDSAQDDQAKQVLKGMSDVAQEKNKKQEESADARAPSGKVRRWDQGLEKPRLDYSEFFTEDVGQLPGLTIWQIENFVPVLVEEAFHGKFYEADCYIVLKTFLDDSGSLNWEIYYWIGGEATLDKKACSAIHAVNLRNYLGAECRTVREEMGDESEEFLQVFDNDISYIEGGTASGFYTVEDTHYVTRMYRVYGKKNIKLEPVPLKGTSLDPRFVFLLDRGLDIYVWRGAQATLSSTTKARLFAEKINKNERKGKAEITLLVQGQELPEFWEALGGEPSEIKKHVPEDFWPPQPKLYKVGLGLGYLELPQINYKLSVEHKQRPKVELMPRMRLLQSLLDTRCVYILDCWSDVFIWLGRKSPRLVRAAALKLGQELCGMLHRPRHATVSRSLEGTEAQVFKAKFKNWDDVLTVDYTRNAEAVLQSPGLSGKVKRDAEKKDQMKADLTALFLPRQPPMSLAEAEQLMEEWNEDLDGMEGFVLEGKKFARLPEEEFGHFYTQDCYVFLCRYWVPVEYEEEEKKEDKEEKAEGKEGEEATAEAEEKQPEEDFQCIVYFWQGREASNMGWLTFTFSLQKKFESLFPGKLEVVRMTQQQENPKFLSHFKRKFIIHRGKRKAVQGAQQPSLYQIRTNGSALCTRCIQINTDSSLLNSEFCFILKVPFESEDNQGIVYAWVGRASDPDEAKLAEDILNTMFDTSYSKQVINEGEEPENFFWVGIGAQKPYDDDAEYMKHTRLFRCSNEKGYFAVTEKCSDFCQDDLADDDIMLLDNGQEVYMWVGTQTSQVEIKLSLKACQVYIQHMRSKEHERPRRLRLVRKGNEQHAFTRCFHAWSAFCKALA
UniProt Q06546: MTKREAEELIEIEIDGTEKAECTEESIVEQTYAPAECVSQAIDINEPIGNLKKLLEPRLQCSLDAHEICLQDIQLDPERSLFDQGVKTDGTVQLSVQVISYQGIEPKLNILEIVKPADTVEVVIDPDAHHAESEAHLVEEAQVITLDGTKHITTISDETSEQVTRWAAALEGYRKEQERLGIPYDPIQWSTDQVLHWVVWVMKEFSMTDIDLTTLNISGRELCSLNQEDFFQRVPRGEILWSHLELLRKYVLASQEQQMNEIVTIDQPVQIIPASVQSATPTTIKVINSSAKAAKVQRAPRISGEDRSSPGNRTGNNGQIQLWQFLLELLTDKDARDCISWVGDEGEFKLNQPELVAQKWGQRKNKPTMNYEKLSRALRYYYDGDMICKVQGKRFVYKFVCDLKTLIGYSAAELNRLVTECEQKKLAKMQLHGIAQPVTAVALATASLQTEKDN
UniProt O75369, whole entry, looked up: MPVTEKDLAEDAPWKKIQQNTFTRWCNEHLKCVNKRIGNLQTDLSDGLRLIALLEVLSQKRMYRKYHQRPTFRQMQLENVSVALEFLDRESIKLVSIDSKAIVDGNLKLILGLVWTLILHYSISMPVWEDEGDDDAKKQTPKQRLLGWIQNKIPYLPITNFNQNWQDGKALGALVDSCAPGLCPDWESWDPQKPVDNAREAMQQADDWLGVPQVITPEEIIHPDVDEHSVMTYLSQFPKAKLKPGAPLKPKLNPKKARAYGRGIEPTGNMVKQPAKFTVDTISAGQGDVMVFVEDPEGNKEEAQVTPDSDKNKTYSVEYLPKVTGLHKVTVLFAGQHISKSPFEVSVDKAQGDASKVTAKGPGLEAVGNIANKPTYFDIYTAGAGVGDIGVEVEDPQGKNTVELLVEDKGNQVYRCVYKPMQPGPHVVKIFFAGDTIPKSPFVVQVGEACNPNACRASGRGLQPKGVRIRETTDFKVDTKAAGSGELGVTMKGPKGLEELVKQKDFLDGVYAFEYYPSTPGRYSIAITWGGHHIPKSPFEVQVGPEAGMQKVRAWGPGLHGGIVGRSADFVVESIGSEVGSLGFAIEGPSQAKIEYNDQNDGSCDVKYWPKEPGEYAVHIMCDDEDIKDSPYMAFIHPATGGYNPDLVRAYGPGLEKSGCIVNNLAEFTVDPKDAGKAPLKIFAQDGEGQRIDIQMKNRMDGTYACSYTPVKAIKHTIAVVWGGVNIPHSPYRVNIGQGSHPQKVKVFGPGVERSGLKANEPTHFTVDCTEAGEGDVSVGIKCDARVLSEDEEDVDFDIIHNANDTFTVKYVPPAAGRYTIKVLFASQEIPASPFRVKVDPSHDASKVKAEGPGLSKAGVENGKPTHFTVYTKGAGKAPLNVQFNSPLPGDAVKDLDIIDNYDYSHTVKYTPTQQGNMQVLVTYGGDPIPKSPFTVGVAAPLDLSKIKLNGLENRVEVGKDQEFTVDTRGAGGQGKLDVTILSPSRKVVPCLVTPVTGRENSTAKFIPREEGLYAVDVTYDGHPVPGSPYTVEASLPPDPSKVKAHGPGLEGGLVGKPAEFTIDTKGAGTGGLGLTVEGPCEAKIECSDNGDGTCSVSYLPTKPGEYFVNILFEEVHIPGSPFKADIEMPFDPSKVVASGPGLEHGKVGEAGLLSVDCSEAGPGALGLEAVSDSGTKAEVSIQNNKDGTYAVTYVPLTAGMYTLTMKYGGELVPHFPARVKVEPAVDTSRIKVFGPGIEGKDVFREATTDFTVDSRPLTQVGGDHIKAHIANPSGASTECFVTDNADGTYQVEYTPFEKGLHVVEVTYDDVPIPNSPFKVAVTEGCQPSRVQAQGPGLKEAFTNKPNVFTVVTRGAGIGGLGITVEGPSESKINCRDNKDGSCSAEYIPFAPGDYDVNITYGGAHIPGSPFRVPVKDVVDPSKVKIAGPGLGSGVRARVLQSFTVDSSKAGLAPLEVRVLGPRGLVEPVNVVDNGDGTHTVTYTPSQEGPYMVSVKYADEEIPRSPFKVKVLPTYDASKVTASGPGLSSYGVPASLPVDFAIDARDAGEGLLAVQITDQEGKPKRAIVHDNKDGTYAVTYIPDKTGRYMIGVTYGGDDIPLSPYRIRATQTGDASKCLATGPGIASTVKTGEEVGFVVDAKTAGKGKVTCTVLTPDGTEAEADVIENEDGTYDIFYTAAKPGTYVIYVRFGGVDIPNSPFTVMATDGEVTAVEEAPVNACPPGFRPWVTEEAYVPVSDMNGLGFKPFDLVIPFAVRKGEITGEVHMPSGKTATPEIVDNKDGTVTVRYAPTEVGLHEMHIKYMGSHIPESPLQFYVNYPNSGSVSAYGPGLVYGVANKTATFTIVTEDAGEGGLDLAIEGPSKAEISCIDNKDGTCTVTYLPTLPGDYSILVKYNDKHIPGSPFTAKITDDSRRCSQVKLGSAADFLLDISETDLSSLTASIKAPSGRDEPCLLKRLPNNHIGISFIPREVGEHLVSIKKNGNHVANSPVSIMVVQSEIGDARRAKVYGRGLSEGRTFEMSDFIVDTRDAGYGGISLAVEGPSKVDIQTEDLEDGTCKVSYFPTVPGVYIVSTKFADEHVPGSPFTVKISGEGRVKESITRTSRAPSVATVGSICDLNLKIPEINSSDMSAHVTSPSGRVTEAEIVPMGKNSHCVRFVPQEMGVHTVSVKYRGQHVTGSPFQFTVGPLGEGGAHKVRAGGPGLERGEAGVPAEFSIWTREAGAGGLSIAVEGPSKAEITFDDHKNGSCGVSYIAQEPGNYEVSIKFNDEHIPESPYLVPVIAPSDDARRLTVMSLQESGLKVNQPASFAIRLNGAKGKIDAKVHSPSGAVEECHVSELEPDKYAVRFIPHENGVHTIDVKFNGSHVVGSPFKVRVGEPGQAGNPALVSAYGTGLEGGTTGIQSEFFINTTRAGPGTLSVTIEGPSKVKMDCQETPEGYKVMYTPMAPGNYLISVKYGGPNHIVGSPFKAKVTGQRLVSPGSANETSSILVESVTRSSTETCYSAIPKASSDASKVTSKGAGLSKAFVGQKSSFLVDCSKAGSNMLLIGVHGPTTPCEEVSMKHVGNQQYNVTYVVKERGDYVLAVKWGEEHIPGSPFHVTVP
UniProt Q13283, whole entry, looked up: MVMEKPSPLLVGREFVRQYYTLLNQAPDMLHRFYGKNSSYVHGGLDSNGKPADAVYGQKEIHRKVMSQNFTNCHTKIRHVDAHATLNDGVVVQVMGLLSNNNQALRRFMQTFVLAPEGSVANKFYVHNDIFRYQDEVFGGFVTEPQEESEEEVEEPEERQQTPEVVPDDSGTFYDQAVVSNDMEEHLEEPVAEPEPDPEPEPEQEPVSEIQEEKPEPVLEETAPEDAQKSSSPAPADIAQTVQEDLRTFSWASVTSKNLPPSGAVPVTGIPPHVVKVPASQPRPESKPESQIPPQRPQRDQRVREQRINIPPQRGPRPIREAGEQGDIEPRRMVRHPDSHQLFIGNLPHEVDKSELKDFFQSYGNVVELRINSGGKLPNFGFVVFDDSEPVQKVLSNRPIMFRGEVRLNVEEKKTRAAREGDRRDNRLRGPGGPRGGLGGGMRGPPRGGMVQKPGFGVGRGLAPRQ
UniProt Q13643: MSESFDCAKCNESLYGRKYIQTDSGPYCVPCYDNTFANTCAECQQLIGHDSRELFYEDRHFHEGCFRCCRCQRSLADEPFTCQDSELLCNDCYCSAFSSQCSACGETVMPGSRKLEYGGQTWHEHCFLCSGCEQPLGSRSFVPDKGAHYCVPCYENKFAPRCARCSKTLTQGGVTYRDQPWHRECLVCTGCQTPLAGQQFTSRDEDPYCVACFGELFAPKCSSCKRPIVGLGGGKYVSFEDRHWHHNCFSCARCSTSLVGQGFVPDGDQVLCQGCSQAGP
UniProt Q96RU3: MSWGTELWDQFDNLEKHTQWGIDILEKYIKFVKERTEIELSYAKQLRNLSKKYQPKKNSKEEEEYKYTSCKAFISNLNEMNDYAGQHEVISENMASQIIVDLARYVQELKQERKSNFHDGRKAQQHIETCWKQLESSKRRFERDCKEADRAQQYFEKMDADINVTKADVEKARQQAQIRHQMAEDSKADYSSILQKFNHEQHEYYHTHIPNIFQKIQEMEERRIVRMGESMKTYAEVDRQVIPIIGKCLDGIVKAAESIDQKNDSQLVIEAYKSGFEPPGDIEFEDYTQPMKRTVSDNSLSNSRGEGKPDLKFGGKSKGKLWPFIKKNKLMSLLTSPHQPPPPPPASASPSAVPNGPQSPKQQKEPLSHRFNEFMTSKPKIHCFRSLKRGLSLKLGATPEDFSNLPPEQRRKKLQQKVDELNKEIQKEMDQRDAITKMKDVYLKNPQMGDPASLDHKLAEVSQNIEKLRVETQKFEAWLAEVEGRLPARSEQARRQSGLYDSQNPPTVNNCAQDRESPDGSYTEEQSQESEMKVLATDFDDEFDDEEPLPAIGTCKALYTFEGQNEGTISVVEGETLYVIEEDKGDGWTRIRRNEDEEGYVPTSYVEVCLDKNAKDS
UniProt P02792: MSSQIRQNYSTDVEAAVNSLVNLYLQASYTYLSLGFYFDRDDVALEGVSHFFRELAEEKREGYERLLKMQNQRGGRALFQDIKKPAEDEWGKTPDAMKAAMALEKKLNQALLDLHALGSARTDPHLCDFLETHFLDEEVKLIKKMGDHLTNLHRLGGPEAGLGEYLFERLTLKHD
UniProt Q13451: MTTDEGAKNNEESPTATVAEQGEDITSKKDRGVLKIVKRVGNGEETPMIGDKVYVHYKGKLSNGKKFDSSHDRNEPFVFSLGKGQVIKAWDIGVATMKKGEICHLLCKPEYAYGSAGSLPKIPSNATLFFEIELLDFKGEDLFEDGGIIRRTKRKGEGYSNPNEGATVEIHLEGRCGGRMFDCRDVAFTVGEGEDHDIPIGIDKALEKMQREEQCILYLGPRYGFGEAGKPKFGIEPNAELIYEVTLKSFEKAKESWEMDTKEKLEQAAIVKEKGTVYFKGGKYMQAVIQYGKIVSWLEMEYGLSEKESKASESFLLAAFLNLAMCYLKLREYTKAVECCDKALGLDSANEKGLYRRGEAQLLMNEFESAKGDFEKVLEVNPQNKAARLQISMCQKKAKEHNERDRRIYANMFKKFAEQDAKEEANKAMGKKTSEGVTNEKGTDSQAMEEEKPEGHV

This is one part of the list.

Compound in the experiment: Cc1cc(ccc1-c1ccccc1)C(=O)N1CCCN(CC1)C(=O)CCl [compound 10]
Kind of experiment: probe-labelled cysteine peptide fold change vs DMSO (competition) (log2 fold change); higher = less target engagement (more negative = stronger competition). Conditions: THP-1, incubation time: 4 h.
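Also: competitive profiling in live THP-1 cells: cysteine peptides tagged with an iodoacetamide desthiobiotin (IA-DTB) probe, intensity after compound treatment relative to DMSO-treated cells.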

Take “FTSJ3_Q8IY81_577_QQLPQTPPSCLK (UniProt Q8IY81)”: the “probe-labelled cysteine peptide fold change” value reads like this: (10 µM) -0.0519; (50 µM) -0.407.

“FKBP9_O95302_214_GLLGMCVGEK (UniProt O95302)”: the “probe-labelled cysteine peptide fold change” value (10 µM) was -0.163 and the “probe-labelled cysteine peptide fold change” value (50 µM) stood at 0.137.

Take “FLNA_P21333_2378_VHSPSGALEECYVTEIDQDK (UniProt P21333)”: the “probe-labelled cysteine peptide fold change” value was -0.759 (10 µM) and -0.549 (50 µM).

With “G6PD_P11413_269_DVMQNHLLQMLCLVAMEK (UniProt P11413)”, the “probe-labelled cysteine peptide fold change” value (10 µM) was 0.335 and the “probe-labelled cysteine peptide fold change” value (50 µM) came to 0.461.

For “FHL2_Q14192_251_QWHNDCFNCK (UniProt Q14192)”, the “probe-labelled cysteine peptide fold change” value reads like this: (10 µM) 0.117; (50 µM) -0.13.

In the case of “FLII_Q13045_232_TQSNLPTSLEGLSNLADVDLSCNDLTR (UniProt Q13045)”, the “probe-labelled cysteine peptide fold change” value (10 µM) turned out to be 0.106 and the “probe-labelled cysteine peptide fold change” value (50 µM) was -0.107.

As to “GABPA_Q06546_69_LQCSLDAHEICLQDIQLDPER (UniProt Q06546)”, the “probe-labelled cysteine peptide fold change” value runs as follows: (10 µM) 0.331; (50 µM) -0.0571.

Consider “FLNB_O75369_450+455_SPFVVQVGEACNPNACR (UniProt O75369)”, for which the “probe-labelled cysteine peptide fold change” value is -0.278 (10 µM) and -0.235 (50 µM).

Regarding “FTO_Q9C0B1_249_SAVAVYSYSCEGPEEESEDDSHLEGRDPDIWHVGFK (UniProt Q9C0B1)”, the “probe-labelled cysteine peptide fold change” value runs as follows: (10 µM) -0.207; (50 µM) -0.335.

Regarding “FLNB_O75369_1326_VAVTEGCQPSR (UniProt O75369)”, the “probe-labelled cysteine peptide fold change” value is, setting by setting: (10 µM) -0.107; (50 µM) 0.0542.

For “G3BP1_Q13283_73_VMSQNFTNCHTK (UniProt Q13283)”, the “probe-labelled cysteine peptide fold change” value by setting is: (10 µM) -0.169; (50 µM) -0.109.

Take “FLNB_O75369_2154_NSHCVR (UniProt O75369)”: the “probe-labelled cysteine peptide fold change” value was -0.434 (10 µM) and 0.73 (50 µM).

On to “FLNB_O75369_1868_AEISCIDNK (UniProt O75369)”, for which the “probe-labelled cysteine peptide fold change” value reads like this: (10 µM) 0.0316; (50 µM) 0.123.

On to “FN1_P02751_374_TFYSCTTEGR (UniProt P02751)”, for which the “probe-labelled cysteine peptide fold change” value is -0.4 (10 µM) and -0.258 (50 µM).

As for “FKBP3_Q00688_133_KGDVVHCWYTGTLQDGTVFDTNIQTSAKK (UniProt Q00688)”, the “probe-labelled cysteine peptide fold change” value runs as follows: (10 µM) 0.0149; (50 µM) -0.278.

As to “FHL3_Q13643_251_HWHHNCFSCAR (UniProt Q13643)”, the “probe-labelled cysteine peptide fold change” value by setting is: (10 µM) 0.102; (50 µM) -0.0572.

As for “FHL1_Q13642_65_FWHDTCFR (UniProt Q13642)”, the “probe-labelled cysteine peptide fold change” value was 0.174 (10 µM) and -0.00101 (50 µM).

As for “FRY_Q5TBA9_2494_CDMQILEER (UniProt Q5TBA9)”, the “probe-labelled cysteine peptide fold change” value reads like this: (10 µM) -0.296; (50 µM) -0.225.

Regarding “FNBP1_Q96RU3_609_NEDEEGYVPTSYVEVCLDK (UniProt Q96RU3)”, the “probe-labelled cysteine peptide fold change” value is -0.0969 (10 µM) and -0.015 (50 µM).

In the case of “FRG1_Q14331_205_QCEINYVK (UniProt Q14331)”, the “probe-labelled cysteine peptide fold change” value by setting is: (10 µM) -0.243; (50 µM) -0.322.

Turning to “FLNB_O75369_2501_SSTETCYSAIPK (UniProt O75369)”, the “probe-labelled cysteine peptide fold change” value by setting is: (10 µM) -0.187; (50 µM) -0.4.

On to “FTL_P02792_127_TDPHLCDFLETHFLDEEVK (UniProt P02792)”, for which the “probe-labelled cysteine peptide fold change” value (10 µM) amounted to 0.41 and the “probe-labelled cysteine peptide fold change” value (50 µM) came to 0.216.

Consider “FUBP1_Q96AE4_132_IQQESGCK (UniProt Q96AE4)”, for which the “probe-labelled cysteine peptide fold change” value is, setting by setting: (10 µM) 0.585; (50 µM) 0.279.

With “FLNB_O75369_2057_VDIQTEDLEDGTCK (UniProt O75369)”, the “probe-labelled cysteine peptide fold change” value reads like this: (10 µM) -0.0403; (50 µM) 0.123.

As for “FSCN1_Q16658_397_GEHGFIGCR (UniProt Q16658)”, the “probe-labelled cysteine peptide fold change” value is 0.0894 (10 µM) and 0.108 (50 µM).

“FKBP5_Q13451_340_AVECCDK (UniProt Q13451)”: the “probe-labelled cysteine peptide fold change” value (10 µM) was -0.225 and the “probe-labelled cysteine peptide fold change” value (50 µM) is -0.444.

With “FLII_Q13045_560_ACSAIHAVNLR (UniProt Q13045)”, the “probe-labelled cysteine peptide fold change” value is 0.105 (10 µM) and -0.0246 (50 µM).

Consider “GABPA_Q06546_61_LQCSLDAHEICLQDIQLDPER (UniProt Q06546)”, for which the “probe-labelled cysteine peptide fold change” value is 0.155 (10 µM) and -0.21 (50 µM).

As to “FOS_P01100_204_EKLEFILAAHRPACK (UniProt P01100)”, the “probe-labelled cysteine peptide fold change” value reads like this: (10 µM) 0.0955; (50 µM) 1.53.

Consider “FKBP5_Q13451_103+107_KGEICHLLCKPEYAYGSAGSLPK (UniProt Q13451)”, for which the “probe-labelled cysteine peptide fold change” value is, setting by setting: (10 µM) 0.152; (50 µM) -0.126.

Take “FKBP5_Q13451_215_MQREEQCILYLGPR (UniProt Q13451)”: the “probe-labelled cysteine peptide fold change” value reads like this: (10 µM) 0.0798; (50 µM) -0.172.

With “FNBP1_Q96RU3_130_AQQHIETCWK (UniProt Q96RU3)”, the “probe-labelled cysteine peptide fold change” value reads like this: (10 µM) 0.0278; (50 µM) 0.00215.

Regarding “FYCO1_Q9BQS8_719_EGECQQLREEVEQCQQLAEAR (UniProt Q9BQS8)”, the “probe-labelled cysteine peptide fold change” value is -0.0866 (10 µM) and -0.273 (50 µM).

Regarding “FHOD1_Q9Y613_164_DLVPEFVHSEGLSCLIR (UniProt Q9Y613)”, the “probe-labelled cysteine peptide fold change” value is, setting by setting: (10 µM) 0.209; (50 µM) 0.238.

As for “FRG1_Q14331_159_CNEAGDIEAK (UniProt Q14331)”, the “probe-labelled cysteine peptide fold change” value (10 µM) was -0.039 and the “probe-labelled cysteine peptide fold change” value (50 µM) was -0.204.
